PubChem BioAssay AID1259424, University of Nebraska Medical Center – 2018
This is an unselected part of about 14,000 reagents tested. 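Higher correlation or smaller distance means closer resemblance to KSR1 loss; control wells, including KSR1 knockdowns, recur on many plates.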 Further read-outs or replicates are left out here. The record does not give: the time to read-out.

Assay: 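Find knockdowns that reproduce the expression shifts seen after KSR1 loss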 (primary screen)
Cell system: human HCT116 colon cancer cells
Knock-down reagent: siRNA pool against human genes, 50 nM
Detection: 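Six signature mRNAs by branched-DNA multiplex assay, scaled to two housekeeping genes and non-targeting median, log2; matched to mean KSR1 knockdown profile by Pearson correlation and euclidean distance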
Scale: mean correlation with KSR1 profile: higher = expression change more like KSR1 knockdown

no.	Target gene	mean correlation with KSR1 profile
1	LRRC59 (leucine rich repeat containing 59)	-0.438
2	ADORA1 (adenosine A1 receptor)	0.523
3	ZNF611 (zinc finger protein 611)	0.175
4	SLC16A1	-0.826
5	ACTL8 (actin like 8)	0.428
6	OAZ1 (ornithine decarboxylase antizyme 1)	0.486
7	IFI44 (interferon induced protein 44)	-0.516
8	ULK1 (unc-51 like autophagy activating kinase 1)	0.0756
9	SCGB2A2 (secretoglobin family 2A member 2)	0.483
10	CHCHD3 (coiled-coil-helix-coiled-coil-helix domain containing 3)	0.15
11	ZNF33A (zinc finger protein 33A)	0.225
12	TCN2 (transcobalamin 2)	-0.274
13	MLNR (motilin receptor)	-0.239
14	CD86 (CD86 molecule)	-0.186
15	TPI1 (triosephosphate isomerase 1)	-0.673
16	PRAM1 (PML-RARA regulated adaptor molecule 1)	0.62
17	IL6ST (interleukin 6 cytokine family signal transducer)	0.555
18	JAG1 (jagged canonical Notch ligand 1)	-0.29
19	AANAT (aralkylamine N-acetyltransferase)	0.594
20	SLCO1B1	-0.16
21	TBC1D12 (TBC1 domain family member 12)	-0.275
22	SGPL1 (sphingosine-1-phosphate lyase 1)	0.192
23	RNF146 (ring finger protein 146)	0.314
24	ANKRD13C-DT (ANKRD13C divergent transcript)	-0.41
25	PRSS16 (serine protease 16)	0.275
26	MKLN1 (muskelin 1)	0.272
27	TMC1 (transmembrane channel like 1)	0.0624
28	RPL10 (ribosomal protein L10)	-0.72
29	ROBO1 (roundabout guidance receptor 1)	-0.939
30	HRH2 (histamine receptor H2)	0.233
31	PLN (phospholamban)	-0.477
32	RBP1 (retinol binding protein 1)	-0.557
33	RAMP2 (receptor activity modifying protein 2)	0.287
34	GAL3ST4 (galactose-3-O-sulfotransferase 4)	0.147

Ordered by “mean correlation with KSR1 profile” (highest first): some entries from above.
Target gene	mean correlation with KSR1 profile
AANAT (aralkylamine N-acetyltransferase)	0.594
SGPL1 (sphingosine-1-phosphate lyase 1)	0.192
SLCO1B1	-0.16
TBC1D12 (TBC1 domain family member 12)	-0.275
JAG1 (jagged canonical Notch ligand 1)	-0.29

Further results follow.
no.	Target gene	mean correlation with KSR1 profile
35	THAP7 (THAP domain containing 7)	-0.264
36	EDAR (ectodysplasin A receptor)	0.524
37	PITX1 (paired like homeodomain 1)	0.416
38	RRP9	-0.401
39	NPFFR2 (neuropeptide FF receptor 2)	0.754
40	MMP8 (matrix metallopeptidase 8)	0.11
41	RANBP3 (RAN binding protein 3)	0.22
42	ZPR1 (ZPR1 zinc finger)	-0.276
43	FKBP2 (FKBP prolyl isomerase 2)	0.154
44	LRRC41 (leucine rich repeat containing 41)	0.271
45	SLC25A16	-0.297
46	SRSF2 (serine and arginine rich splicing factor 2)	0.307
47	B3GALT5 (beta-1,3-galactosyltransferase 5)	0.464
48	TNNT3 (troponin T3, fast skeletal type)	-0.04
49	IQGAP1 (IQ motif containing GTPase activating protein 1)	0.524
50	ATXN8OS (ATXN8 opposite strand lncRNA)	-0.18
51	ROBO3 (roundabout guidance receptor 3)	-0.221
52	CEBPG (CCAAT enhancer binding protein gamma)	0.283
53	CFDP1 (chromatin remodeling protein CFDP1)	-0.402
54	COG5 (component of oligomeric golgi complex 5)	-0.47
55	SSX2 (SSX family member 2)	-0.122
56	ZFPM2 (zinc finger protein, FOG family member 2)	0.07
57	SEC61B (SEC61 translocon subunit beta)	-0.148
58	TBX19 (T-box transcription factor 19)	0.47
59	PCDHGB5 (protocadherin gamma subfamily B, 5)	-0.163
60	HS3ST3B1 (heparan sulfate-glucosamine 3-sulfotransferase 3B1)	0.0342
61	CFAP68 (cilia and flagella associated protein 68)	-0.342
62	KIFBP (kinesin family binding protein)	0.114
63	ACOX1 (acyl-CoA oxidase 1)	-0.463
